Assay results reported in paper PMC11415432.

Test system: T1, MBP-PgWRKY74
T1 sequence (limits assumed): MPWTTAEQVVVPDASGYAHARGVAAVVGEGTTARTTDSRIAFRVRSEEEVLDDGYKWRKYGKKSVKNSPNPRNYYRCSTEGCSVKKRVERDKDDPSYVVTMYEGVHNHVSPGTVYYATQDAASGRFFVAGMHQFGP
Test: EMSA
Details: shift attenuated by unlabeled self competitor; 4% glycerol, 60 mM KCl, 10 mM Tris-HCl pH 7.5, room temperature 20 min; 1% agarose gel in 1x TAE; recombinant protein; protein details: N-terminal MBP (pMAL-c5E); label: DIG-dUTP labeling by PCR

Binding result, binds:
CAGAGCGGATCTGAGGGCATTTCGCAGCATTCAGGAGCGCTTTTGGGGATTTCTCAGCGCATCCTGTAGCATTTCTCAACGATTCGGTGAGCATTTCGTGCCTTTCTTTTCCCGGTCCCGTGGGTAATTACGTGTTGTTAAGTTACTCGTCGTTGAGGGTTTAATGTCCACTCTGTTGTGATTCAGGCTCGTCAAGTTCTTGATCGTTGGTTAAACATGTTTTCGAGTTCTAATTCCATGTTTAGAGAGGGATTAGGATTGTTTTGCAACCCTTCCAGATTGTTGTACATCTGAAAGTTCTCGCAGCTTTGTGGAAAAAGAATGGGCCTTTATTTCTCTGGGGAATGAATTCCTGTGGCATCTGATGCTCTAGGACCATAAAGAGCTCACTAAAGCTTGTAACTTTACTGCTGTCCTACCTCACTAAACTGCCCTATGGAATAATTCCTCAAGCTGTTTTCCTTTTCGTCATCTTTGGCGAAATAGGGGAAGAGCCTCTC (double strand)
CCTTTTCGTAATCCACGAACCAACTAGCTTGTAGCTTCTGCATTCAGTCAATTGCTCTTTGCTCAGCGACACGGAGTCAGCGTGCAGGATGAATCTCGTCCTATAAAGCGACGTGATTGCCAGTGCTCCTAAGTCTCGGGATCAATCGAACCTGTTATTATTACTATGGCATGATGCATCTGCAGTGGATTATGGTAGATCCTTCCTTCATTCAATAAGTCACTTGTTTTAGTCTCCTTCATCCTTTCCATAGTTGCTAAATTTAGTCCATACCTATTTGGTTCAAAAGATTCATAGGGACCACAACAAATGAGAGGGCATCTCTCTCCATTTAGTCCCAATAAGCAACCCTTTGGTGACTTGTTGGCTTATGAATTGAGACTAAATTTAATCCTCATTAAGTCACCATGTTTGGCACCAAAGTGACTTAATGGAACTTAATTTAGGTTGGCTAGAATAAGTAACCCCAATCCAAGCAGGGCCTGAGCTGCTGAGCATAA (double strand) [promoter probe 2 (Supplementary Table 3, second entry)]
GCACTCGCTGACTTGGTGGACCCGCAGACACGCGGACCCCGCGTGTCATAGGGGTGCCCGGGTGGAGGCGTGGTGGGGGCGCGTCGGGCGCCCATGTGGGCGGACCACGTGGGGGTCCTCTCGCTCGCCTGTAGCCGGTAGCCGGTCGCCGCGGCGGGGCATTAAGTGGCTAATCATCGCCGCTTTCTTCCTCCACCACCGCCTCCCTCCTCCTAAATTCTCGAGGTTAAATAAGCGAGCTGGAGAAAGCAGTTCGGAGCCTAGTCTAGTGAGAAAGGGAGAGGAGGGAGGAAAGGGAAAGCGGCAGGGAGCAAAGAAGAAAGGTCAAGGCATCTGGGGTGCTTCTTCTTCTTCTCCTTCTTTCCGGAGATTCTTGGGACGAGGCGCCGCGGAAGGGAATTTCTCTGGCCTCCGCCGCCACAGCTTCC (double strand)
GGCACAGGTGCTGGCGTGCCCCCGTAGTCTCGGTTCGTAATACCACCCGGGACTAAAGGAGCCTTTAGTCCCGGTTGGTTCAAGCTGGACTAGGGGGGCTTTTGTCTCTAAACTTTAGTCCTGGTTGGACTTGAGAGACCTAAACCCCTTTCCAACCGGGACTAAAGCCCCTCTCCCTACCAGTGACAGGTGGGTTCTAGTGAATGAATAAGAGGAGTAGAGGATGGAAGTAGAGTGTACGCGTGCAGTAGGATGTTCTTTTTGAGGTATATTTAGAGGACATCTAACATATGTGTTGGATATAGATTTGGGTTATTACTTATTATTACTTGTCAGGCTGTCACCAGCCACCACTGATTCTTGAAACCAAATCCATCAGATTCCCAAGAGTGCCAAAGGGAATCTCTCCTTCTGCATCCCTCTATATAGTGCCGATCGAAACACAAAGCACATTGCCCTCAGTGTCCCATACGGAAAACCGGCCCCCATCGAGCGTGGAC (double strand)

Protein sequences can lack the tags named with them.
